For 60 compounds, AC50 results are on record in PubChem BioAssay AID445 (National Center for Advancing Translational Sciences (NCATS), 2006).

This test in a line: IkB Signaling. As to conditions: ABC-DLBCL IkBa-CBG/CBR dual luciferase ratio (green luciferase fused to IkBa over red control in OCI-Ly3 lymphoma cells), 4 h. In a few lines:
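In this assay, an IκBα–CBG68 fusion accumulates when IKK-driven degradation is blocked; native CBR normalizes for cell number. OCI-Ly3 cells were treated 4 h with compound and doxycycline, then green and red light read after Chroma-Glo addition.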

Setting [1] is: measured here: control luc red channel unless noted.
[2] abbreviates: measured here: IkB-luc green channel.
[3] abbreviates: measured here: control luc red channel.

SMILES strings stand for the structures. Values joined by “and” are separate entries in the source; they are usually repeats but may differ in a detail not shown here. Equal entries are not always repeated. The list shows a part of the results. Further columns of the screen follow, without active or inactive calls. Compounds called inactive in the main read-out are mostly missing here. The note in brackets gives the kind of curve behind each potency; many fits are weak.

In the case of `CN(C)Cc1nc2c(c(=O)[nH]1)C1(CCCCC1)Cc1ccccc1-2`, under setting [1], the AC50 (commonly the concentration at which the activity in the assay is half-maximal) was 39.8 µM [rising, single point] [measured here: IkB-luc green channel]. Consider `Cc1ccc(-c2nc(-c3cc4cccc(OCc5ccc(F)cc5)c4oc3=O)no2)cc1`, for which the AC50 under setting [1] was 31.6 µM [falling, partial curve].

For the compound `CCN(c1ccccc1)S(=O)(=O)c1nnc(NC(=O)C(C)(C)C)s1`, the AC50 under setting [1] was 1 µM [rising, full curve].

For `CCN1CCc2nc3sc(C(=O)c4ccccc4)c(N)c3cc2C1`, the AC50 under setting [1] is 39.8 µM [falling, single point]. Consider `CC(CNC(=O)c1ccc(CSc2nc3ccncc3n2Cc2ccc(F)cc2)cc1)c1ccccc1` (centres undefined), for which the AC50 under setting [1] is 10 µM [falling, partial curve].

For the compound `Cc1nn(Cc2ccccc2)c(C)c1NC(=O)CSc1nnc(-c2cc(Cl)ccc2O)n1C`, under setting [1], the AC50 is 5.01 µM [falling, partial curve]. Still for that read-out and setting: in the case of `CCc1ccc(CNCc2c(C(=O)O)c(C)n(Cc3c(F)cccc3Cl)c2C)cc1` it was 25.1 µM [falling, single point]; in that of `CCOc1cccc(C(=O)N(Cc2ccc(N(C)C)cc2)CC2CCCO2)c1` (centres undefined), 12.6 µM [falling, partial curve]. Take `CCOc1ccc(C(=O)CCN2CCCCC2)cc1`: the AC50 by setting is: under setting [2], 6.31 µM [falling, single point]; under setting [3], 5.01 µM [falling, partial curve].

On to `COc1ccc(-c2cccc(NS(=O)(=O)c3ccc(C)s3)c2)nn1`, for which the AC50 under setting [1] is 2.51 µM [falling, full curve, poor fit].

For the compound `COCCCNC(=O)c1oc2c(c1C)-c1nn(Cc3ccc(Cl)cc3)cc1CC2`, the AC50 under setting [1] was 0.0398 µM [falling, full curve]. With `O=C(c1cc2ccccn2n1)N1CCN(c2ccccn2)CC1`, the AC50 under setting [1] is 10 µM [falling, partial curve]. On the same count and under the same terms, in the case of `COC(=O)C1=C(C)N(c2ccc(F)c(Cl)c2)C(=O)C1` it was 3.16 µM [falling, partial curve]; in that of `O=C(O)c1c(-c2ccccc2)oc2ccc(OCc3ccc(Cl)c(Cl)c3)cc12`, 15.8 µM [falling, partial curve]; in that of `Cc1ccc(Nc2nc(N)nc(CN3CCN(Cc4ccc5c(c4)OCO5)CC3)n2)cc1`, 15.8 µM [falling, partial curve].

As to `COc1ccc(S(=O)(=O)Nc2ccc3oc4c(c3c2)C(=O)CC(C)(C)C4)cc1`, the AC50 under setting [1] was 10 µM [falling, partial curve, poor fit]. With `O=c1[nH]c2cc3c(cc2cc1CN(Cc1ccccc1)Cc1nnnn1Cc1ccco1)OCCO3`, the AC50 under setting [1] is 3.16 µM [falling, full curve]. Still for that read-out and setting: in the case of `Cc1ccc(C)c(N2CCN(C(=O)c3cc4c(=O)n(Cc5ccco5)ccc4nc3C)CC2)c1` it was 20 µM [falling, partial curve]; in that of `COc1cccc(C(=O)Nc2cccc(NC(=O)c3ccc(Cl)cc3Cl)c2)c1`, 10 µM [falling, partial curve]. With `CCC(C)Nc1sc(S(=O)(=O)CC)nc1S(=O)(=O)c1ccc(C)cc1` (centres undefined), under setting [1], the AC50 was 15.8 µM [falling, partial curve].

On to `COC(=O)c1[nH]c2ccccc2c1NC(=O)CN1CCN(c2cccc(Cl)c2)CC1`, for which the AC50 under setting [1] was 15.8 µM [falling, partial curve].

On to `Cc1cccc(NS(=O)(=O)c2ccc3c(c2)[C@H]2C=CC[C@H]2[C@@H](c2ccc(F)cc2)N3)c1`, for which, under setting [1], the AC50 was 10 µM [falling, partial curve].

On to `CCCOc1ccc(-c2nn(-c3ccccc3)cc2C2NC(=O)NC(C)=C2C(=O)OC)cc1` (centres undefined), for which the AC50 under setting [1] was 25.1 µM [falling, partial curve].

As for `CCc1ccc(C(=O)c2cn(CC(=O)Nc3cc(OC)ccc3OC)c3ccc(C)cc3c2=O)cc1`, the AC50 under setting [1] was 25.1 µM [falling, partial curve]. Still for that read-out and setting: in the case of `Cc1ccc(C)c(NC(=O)Cn2c(=O)nc(-c3ccccc3)c3ccccc32)c1` it was 12.6 µM [falling, single point]; in that of `COc1ccc(-c2nc(CCNC(=O)c3cccs3)cs2)cc1`, 39.8 µM [falling, single point]; in that of `COc1ccc(NC(=O)CSC2=Nc3ccccc3C3=NC(CCC(=O)NCc4ccc(F)cc4)C(=O)N23)cc1Cl` (centres undefined), 15.8 µM [falling, partial curve].

Take `CCOC(=O)c1ccc(NC(=O)CC2Sc3ccc(C(F)(F)F)cc3NC2=O)cc1` (centres undefined): the AC50 under setting [1] was 20 µM [falling, single point]. Take `COc1cccc(N2CCN(C(=O)C3CCN(S(=O)(=O)c4cccc5nonc45)CC3)CC2)c1`: the AC50 under setting [1] was 10 µM [falling, partial curve]. Same read-out and setting: in the case of `Cc1cc(NC(=O)CCNS(=O)(=O)c2ccc3c(c2)CCCC(=O)N3)ccc1Br` it was 20 µM [falling, partial curve, poor fit]; in that of `CCOC(=O)N1CCC(N2Cc3cccc(C(=O)NCc4ccccc4OC)c3C2=O)CC1`, 15.8 µM [falling, partial curve]. Regarding `Cc1ccc(-n2c3c(cc(-c4nc(-c5ccc(Cl)cc5)cs4)c2=O)C(=O)CC(C)(C)C3)cc1C`, the AC50 under setting [1] is 39.8 µM [falling, single point]. In the case of `COC(=O)c1ccc(CSc2nc(C)nc3sc(C)c(C)c23)o1`, the AC50 reads like this: under setting [2], 39.8 µM [rising, single point]; under setting [3], 31.6 µM [rising, single point].

As to `Cc1ccc(C)c(N2CCN(C(=O)CCc3nnc4n(CC(C)C)c(=O)c5ccccc5n34)CC2)c1`, the AC50 under setting [1] is 31.6 µM [falling, partial curve]. For `CCn1cc(C(=O)N2CCN(c3cccc(Cl)c3)CC2)c2cc(OC)c(OC)cc2c1=O`, the AC50 under setting [1] is 15.8 µM [falling, partial curve]. Turning to `Cc1ccc(CN2CCc3nc(Nc4ccc5c(c4)OCCO5)ncc3C2)cc1`, the AC50 under setting [1] is 20 µM [falling, partial curve]. As for `Cc1cc(C)c(C#N)c(N2CCSCC2)n1`, the AC50 under setting [1] is 2.51 µM [rising, full curve, poor fit]. Turning to `CCOC(=O)c1ccc(NC(=O)CCn2c(=O)c3cccn3c3cccnc32)cc1`, the AC50 under setting [1] is 5.01 µM [rising, single point]. On the same count and under the same terms, in the case of `O=C(Nc1ccc(F)cc1F)c1cc(-c2ccc(Cl)cc2)on1` it was 0.2 µM [falling, full curve]; in that of `CCc1cccc(NS(=O)(=O)c2ccc(-n3cccn3)cc2)c1`, 3.98 µM [falling, partial curve]; in that of `O=c1cnn(-c2ccccc2)c(-c2ccccc2)c1`, 1 µM [rising, full curve, poor fit]. Turning to `COc1ccc(NC(=O)c2ccc3c(SCC(=O)O)c4c(nc3c2)CCCC4)c(OC)c1`, under setting [1], the concentration at half-maximal activity (AC50) is 25.1 µM [falling, partial curve]. As for `COC(=O)Oc1nsnc1N1CCOCC1`, the AC50 under setting [1] was 31.6 µM [rising, single point] [measured here: IkB-luc green channel]. In the case of `O=C(NCCCN1CCN(c2ccc(F)cc2)CC1)c1cnn(-c2ccc(F)cc2)c1-n1cccc1`, the half-maximal activity concentration (AC50) under setting [1] is 12.6 µM [falling, partial curve]. Turning to `O=C(CN1C(=O)COc2ccc(S(=O)(=O)N3CCOCC3)cc21)N1CCN(c2cccc(Cl)c2)CC1`, the AC50 under setting [1] was 31.6 µM [falling, single point]. In the case of `CC(=O)c1cccc(Nc2nc(-c3cccc(C)c3)nc3ccccc23)c1`, the AC50 under setting [1] is 12.6 µM [falling, partial curve].

Take `Cc1nn(-c2ccc(N3CCCCC3)nn2)c(C)c1CCC(=O)NCc1ccc(OC(C)C)cc1`: the AC50 under setting [1] was 12.6 µM [falling, partial curve]. In the case of `CC(C)[C@H](CO)Nc1nc(Nc2cccc(Cl)c2)c2ncn(C(C)C)c2n1`, the AC50 under setting [2] was 20 µM [falling, partial curve, poor fit]; the AC50 under setting [3] was 7.94 µM [falling, full curve] and 501 nM [falling, full curve]. In the case of `CCOc1ncccc1C(=O)OCC(=O)c1cc(C)n(Cc2ccco2)c1C`, under setting [1], the AC50 was 25.1 µM [falling, partial curve]. `CC(C)=CCC/C(C)=C/COc1c2ccoc2cc2oc(=O)ccc12`: under setting [1], the AC50 was 0.251 µM [rising, single point]. In the case of `COc1cccc(C(=O)NCC(c2ccc(N(C)C)cc2)N2CCc3ccccc32)c1` (centres undefined), the AC50 was 39.8 µM [rising, single point] under setting [2] and 10 µM [falling, partial curve] under setting [3].

On to `O=C(CSc1nnc(COc2ccccc2)n1Cc1ccco1)c1ccc(F)cc1`, for which the AC50 under setting [1] was 25.1 µM [falling, partial curve]. The same measure, in the same setting: in the case of `CCSc1oc(-c2ccco2)nc1S(=O)(=O)c1ccc(Br)cc1` it was 15.8 µM [falling, partial curve]. Regarding `Cc1ccc(NC(=O)Cn2c(=O)c3ccccc3n3nncc23)cc1`, the AC50 under setting [1] is 15.8 µM [falling, partial curve]. As to `COc1ccccc1-c1cc2nc(C)c(CCC(=O)O)c(C)n2n1`, the AC50 under setting [1] was 0.1 µM [falling, full curve]. On the same count and under the same terms, in the case of `Cc1ccc(-c2nn(-c3ccc(F)cc3)c3c2cnc2cc(F)c(F)cc23)cc1` it was 20 µM [rising, partial curve]; in that of `CCCc1cc(=O)[nH]c(SCC(=O)N2CCN(c3ccccc3OC)CC2)n1`, 10 µM [falling, partial curve]; in that of `COc1cc(NC(=O)c2cc3c(s2)-c2ccccc2OC3)cc(OC)c1OC`, 20 µM [falling, partial curve]. For the compound `Cc1cccc(N2CCN(C(=O)c3c(C)oc4ncnc(N5CCOCC5)c34)CC2)c1C`, the AC50 under setting [1] is 39.8 µM [falling, single point]. Take `Cc1nn(C(=O)COc2ccccc2Br)c(C)c1Sc1ccccc1`: under setting [1], the AC50 was 12.6 µM [falling, partial curve].
